Assay results: paper PMC11344278, “Structural and biochemical characterization of the C‐terminal region of the human RTEL1 helicase” (Protein Science : A Publication of the Protein Society, 2024)
These are yes or no findings as the source states them, for the method shown.

Molecular target: human RTEL1 HHD2 fragment (second harmonin homology domain) (human) (UniProt Q9NZ71)
Assay: SEC-SAXS; in-line Superdex 75 Increase column, 0.2 mL/min, 20 °C; 50 mM Hepes pH 7 (HHD1: TRIS pH 8), 150 mM NaCl, 10% glycerol, 1 mM TCEP; EMBL P12 beamline; both purified

B1: human RTEL1 HHD2 fragment (second harmonin homology domain) (domain or fragment, UniProt Q9NZ71 1053-1147)
chain: GKQGQHAVSAYLADARRALGSAGCSQLLAALTAYKQDDDLDKVLAVLAALTTAKPEDFPLLHRFSMFVRPHHKQRFSQTCTDLTGRPYPGMEPPG
binding: no binding (tested: 6.2 mg/mL)
